Data reported in the supplement of paper PMC11006884.
This is a selection; strong and weak results do not stand in their true shares.

Chains of the proteins cited; added tags and fusions are not shown. Lines headed by an entry give the natural chain unless they say otherwise; changes in a name come on top.
UniProt Q9ULC4: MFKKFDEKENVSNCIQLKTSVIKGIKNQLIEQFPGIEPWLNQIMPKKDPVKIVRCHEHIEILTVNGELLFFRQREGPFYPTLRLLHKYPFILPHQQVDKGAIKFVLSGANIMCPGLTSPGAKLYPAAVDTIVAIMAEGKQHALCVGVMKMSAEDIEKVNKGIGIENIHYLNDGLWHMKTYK
UniProt Q9ULV3: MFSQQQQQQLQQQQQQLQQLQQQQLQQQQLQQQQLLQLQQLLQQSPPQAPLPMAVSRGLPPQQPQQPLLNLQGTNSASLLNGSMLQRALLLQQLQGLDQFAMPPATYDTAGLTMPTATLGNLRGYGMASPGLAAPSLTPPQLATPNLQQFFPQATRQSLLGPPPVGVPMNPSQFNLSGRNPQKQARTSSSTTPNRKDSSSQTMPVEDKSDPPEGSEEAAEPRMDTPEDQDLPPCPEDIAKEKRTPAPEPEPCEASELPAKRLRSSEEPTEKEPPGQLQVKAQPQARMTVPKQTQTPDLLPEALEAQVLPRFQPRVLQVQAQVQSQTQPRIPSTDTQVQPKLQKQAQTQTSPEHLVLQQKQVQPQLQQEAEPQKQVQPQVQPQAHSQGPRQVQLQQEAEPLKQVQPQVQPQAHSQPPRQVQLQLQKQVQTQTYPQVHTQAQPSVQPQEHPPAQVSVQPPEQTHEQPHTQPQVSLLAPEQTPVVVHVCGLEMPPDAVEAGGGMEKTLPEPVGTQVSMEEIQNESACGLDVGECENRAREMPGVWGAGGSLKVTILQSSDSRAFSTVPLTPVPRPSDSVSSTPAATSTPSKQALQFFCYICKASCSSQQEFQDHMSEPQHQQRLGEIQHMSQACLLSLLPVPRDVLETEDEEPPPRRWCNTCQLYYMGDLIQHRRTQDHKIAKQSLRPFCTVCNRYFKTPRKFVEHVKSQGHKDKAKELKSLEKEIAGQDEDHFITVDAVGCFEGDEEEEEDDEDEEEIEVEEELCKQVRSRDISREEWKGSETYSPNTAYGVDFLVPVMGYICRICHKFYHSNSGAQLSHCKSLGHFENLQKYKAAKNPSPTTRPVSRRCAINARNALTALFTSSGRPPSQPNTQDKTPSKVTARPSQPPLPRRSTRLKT
UniProt Q9ULW3: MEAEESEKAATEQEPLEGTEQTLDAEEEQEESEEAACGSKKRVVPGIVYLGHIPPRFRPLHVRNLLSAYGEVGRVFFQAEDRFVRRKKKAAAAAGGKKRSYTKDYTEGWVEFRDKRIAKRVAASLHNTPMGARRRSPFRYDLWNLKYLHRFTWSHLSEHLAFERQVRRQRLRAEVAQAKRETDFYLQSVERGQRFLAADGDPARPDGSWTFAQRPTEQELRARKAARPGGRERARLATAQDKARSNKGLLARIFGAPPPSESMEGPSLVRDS
UniProt Q9UNH7: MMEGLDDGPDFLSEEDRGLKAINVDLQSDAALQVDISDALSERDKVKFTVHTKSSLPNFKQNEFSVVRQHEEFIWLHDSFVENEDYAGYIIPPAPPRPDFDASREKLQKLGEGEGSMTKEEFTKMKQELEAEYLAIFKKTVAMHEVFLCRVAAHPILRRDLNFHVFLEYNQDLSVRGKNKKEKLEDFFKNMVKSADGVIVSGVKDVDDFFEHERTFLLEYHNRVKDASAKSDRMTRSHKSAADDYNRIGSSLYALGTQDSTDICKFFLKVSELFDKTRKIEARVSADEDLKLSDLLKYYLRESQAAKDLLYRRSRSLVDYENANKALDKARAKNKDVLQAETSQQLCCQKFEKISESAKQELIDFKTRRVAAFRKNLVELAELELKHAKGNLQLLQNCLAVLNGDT
UniProt Q9Y2X3: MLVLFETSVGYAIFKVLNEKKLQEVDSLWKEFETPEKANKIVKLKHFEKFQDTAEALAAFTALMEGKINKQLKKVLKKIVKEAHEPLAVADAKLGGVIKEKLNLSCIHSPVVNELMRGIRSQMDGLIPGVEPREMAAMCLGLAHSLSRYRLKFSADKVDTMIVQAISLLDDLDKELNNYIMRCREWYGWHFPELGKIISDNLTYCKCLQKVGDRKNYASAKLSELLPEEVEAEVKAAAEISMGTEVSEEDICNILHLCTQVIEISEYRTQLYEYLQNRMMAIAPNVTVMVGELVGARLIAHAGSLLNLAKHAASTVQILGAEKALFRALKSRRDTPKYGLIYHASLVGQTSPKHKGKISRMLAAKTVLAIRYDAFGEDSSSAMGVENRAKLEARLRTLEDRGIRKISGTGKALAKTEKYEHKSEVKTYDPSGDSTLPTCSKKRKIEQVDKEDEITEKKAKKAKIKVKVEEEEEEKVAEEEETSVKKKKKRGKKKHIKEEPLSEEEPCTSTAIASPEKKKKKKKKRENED
UniProt Q9UPT8: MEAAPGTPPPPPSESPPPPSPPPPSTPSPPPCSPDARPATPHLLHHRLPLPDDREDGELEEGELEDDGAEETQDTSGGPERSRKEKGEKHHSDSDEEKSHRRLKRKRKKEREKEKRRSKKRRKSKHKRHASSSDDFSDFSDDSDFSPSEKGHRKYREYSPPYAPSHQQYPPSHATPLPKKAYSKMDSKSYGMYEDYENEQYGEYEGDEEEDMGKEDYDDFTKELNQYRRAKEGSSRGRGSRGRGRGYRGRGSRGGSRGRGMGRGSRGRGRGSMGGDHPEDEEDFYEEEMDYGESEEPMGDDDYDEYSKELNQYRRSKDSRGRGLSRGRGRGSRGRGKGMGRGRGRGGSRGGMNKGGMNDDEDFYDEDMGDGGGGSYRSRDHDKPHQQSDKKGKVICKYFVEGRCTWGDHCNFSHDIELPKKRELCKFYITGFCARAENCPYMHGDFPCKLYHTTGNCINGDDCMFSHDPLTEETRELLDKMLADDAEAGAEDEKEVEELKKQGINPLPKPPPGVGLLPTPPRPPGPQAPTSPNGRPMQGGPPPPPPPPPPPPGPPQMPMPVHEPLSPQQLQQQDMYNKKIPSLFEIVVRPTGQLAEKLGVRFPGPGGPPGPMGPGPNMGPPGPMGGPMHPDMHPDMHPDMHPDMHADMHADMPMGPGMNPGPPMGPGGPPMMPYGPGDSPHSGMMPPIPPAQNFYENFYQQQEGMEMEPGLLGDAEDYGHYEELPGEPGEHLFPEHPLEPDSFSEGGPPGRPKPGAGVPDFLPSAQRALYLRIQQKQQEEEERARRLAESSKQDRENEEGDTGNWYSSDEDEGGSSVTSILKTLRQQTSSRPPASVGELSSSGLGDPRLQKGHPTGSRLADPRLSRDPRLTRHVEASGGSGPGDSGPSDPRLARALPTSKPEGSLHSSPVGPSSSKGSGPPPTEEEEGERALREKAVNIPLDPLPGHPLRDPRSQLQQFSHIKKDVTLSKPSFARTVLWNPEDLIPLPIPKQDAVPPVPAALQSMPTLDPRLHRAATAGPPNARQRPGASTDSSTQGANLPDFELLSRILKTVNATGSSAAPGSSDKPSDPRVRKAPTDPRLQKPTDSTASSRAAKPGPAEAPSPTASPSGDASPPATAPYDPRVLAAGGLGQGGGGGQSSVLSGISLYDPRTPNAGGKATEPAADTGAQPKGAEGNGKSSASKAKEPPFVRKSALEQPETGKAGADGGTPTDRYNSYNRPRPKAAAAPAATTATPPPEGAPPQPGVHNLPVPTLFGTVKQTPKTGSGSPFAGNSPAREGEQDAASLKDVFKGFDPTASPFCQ
UniProt Q9UKN8: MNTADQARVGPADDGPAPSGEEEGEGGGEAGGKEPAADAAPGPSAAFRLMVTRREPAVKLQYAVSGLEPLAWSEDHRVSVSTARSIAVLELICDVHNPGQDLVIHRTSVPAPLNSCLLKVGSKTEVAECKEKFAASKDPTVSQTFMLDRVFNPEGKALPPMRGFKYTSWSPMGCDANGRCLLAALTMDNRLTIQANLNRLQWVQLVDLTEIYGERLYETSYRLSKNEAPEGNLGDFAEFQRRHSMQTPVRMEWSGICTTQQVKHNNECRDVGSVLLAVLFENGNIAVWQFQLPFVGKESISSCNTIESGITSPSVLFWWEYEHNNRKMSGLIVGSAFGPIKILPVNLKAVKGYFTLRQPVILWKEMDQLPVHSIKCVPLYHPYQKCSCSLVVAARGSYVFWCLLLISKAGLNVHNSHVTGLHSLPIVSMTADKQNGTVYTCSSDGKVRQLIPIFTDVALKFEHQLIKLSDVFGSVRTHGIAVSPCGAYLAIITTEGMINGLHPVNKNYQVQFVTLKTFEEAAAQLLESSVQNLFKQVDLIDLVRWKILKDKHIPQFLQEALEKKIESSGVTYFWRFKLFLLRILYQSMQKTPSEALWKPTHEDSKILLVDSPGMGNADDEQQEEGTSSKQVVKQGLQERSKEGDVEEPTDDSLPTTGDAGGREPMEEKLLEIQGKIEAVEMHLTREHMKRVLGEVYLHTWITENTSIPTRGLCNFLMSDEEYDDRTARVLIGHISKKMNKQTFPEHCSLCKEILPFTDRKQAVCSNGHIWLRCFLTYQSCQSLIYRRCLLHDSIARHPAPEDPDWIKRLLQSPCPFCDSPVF
UniProt Q9UHI6: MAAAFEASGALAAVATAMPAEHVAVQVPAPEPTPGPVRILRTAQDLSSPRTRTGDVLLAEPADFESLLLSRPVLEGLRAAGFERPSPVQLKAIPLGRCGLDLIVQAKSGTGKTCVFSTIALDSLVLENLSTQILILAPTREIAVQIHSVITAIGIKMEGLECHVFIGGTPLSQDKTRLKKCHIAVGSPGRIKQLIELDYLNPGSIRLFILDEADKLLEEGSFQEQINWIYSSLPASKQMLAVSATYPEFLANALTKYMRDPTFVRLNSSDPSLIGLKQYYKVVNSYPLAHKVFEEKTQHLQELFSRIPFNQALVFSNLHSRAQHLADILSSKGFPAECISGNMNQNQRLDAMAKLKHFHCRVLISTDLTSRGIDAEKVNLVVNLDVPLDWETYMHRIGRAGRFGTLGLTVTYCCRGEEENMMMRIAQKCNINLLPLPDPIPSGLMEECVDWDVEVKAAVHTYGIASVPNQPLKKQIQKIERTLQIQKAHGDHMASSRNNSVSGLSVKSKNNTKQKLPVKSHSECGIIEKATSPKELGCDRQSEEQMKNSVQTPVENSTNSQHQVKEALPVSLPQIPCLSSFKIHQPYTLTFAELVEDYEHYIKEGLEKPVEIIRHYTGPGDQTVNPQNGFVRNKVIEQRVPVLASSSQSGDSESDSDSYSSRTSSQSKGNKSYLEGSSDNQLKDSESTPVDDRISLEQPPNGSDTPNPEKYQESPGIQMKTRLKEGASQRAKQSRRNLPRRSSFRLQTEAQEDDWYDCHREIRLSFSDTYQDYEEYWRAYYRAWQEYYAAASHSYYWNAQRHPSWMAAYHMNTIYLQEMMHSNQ
UniProt Q9UNY4: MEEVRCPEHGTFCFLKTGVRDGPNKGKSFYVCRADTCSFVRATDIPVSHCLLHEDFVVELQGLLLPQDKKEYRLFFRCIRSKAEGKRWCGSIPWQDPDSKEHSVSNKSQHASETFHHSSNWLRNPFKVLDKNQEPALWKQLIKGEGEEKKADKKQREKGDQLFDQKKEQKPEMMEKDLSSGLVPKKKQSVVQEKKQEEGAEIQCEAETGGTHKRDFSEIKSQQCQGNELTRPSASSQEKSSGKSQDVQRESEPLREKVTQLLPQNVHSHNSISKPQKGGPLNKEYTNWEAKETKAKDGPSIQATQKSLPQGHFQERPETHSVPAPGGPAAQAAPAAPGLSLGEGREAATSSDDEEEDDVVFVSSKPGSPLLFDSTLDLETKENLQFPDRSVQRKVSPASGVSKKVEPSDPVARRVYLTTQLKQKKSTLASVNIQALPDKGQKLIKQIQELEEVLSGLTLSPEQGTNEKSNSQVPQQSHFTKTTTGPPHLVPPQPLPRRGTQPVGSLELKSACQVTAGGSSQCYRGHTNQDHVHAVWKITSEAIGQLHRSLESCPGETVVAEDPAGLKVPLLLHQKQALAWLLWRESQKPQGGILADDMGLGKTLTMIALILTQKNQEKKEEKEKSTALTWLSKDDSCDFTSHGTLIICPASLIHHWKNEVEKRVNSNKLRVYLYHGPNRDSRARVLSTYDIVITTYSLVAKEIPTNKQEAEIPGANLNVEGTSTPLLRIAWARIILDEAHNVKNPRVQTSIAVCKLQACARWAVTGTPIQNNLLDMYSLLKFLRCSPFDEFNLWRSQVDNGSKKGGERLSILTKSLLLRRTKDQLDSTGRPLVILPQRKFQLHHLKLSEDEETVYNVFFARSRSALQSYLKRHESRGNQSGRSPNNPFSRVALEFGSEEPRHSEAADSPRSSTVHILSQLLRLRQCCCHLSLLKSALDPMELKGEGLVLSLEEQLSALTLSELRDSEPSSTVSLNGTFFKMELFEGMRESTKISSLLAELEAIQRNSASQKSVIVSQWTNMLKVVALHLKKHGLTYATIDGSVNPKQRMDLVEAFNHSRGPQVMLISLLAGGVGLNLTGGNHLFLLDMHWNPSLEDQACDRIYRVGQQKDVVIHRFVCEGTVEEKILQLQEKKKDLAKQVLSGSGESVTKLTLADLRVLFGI

compound: COC(=O)C#Cc1ccccc1 [methyl 3-phenylpropiolate]; assay: log2 ratio of iodoacetamide-alkyne labeling of the cysteine site, DMSO over compound (competition); higher = stronger covalent engagement of the cysteine by the compound, active = 1 or more; conditions: 500 µM; treatment time 1 h; system: HEK293T cell lysate
Method in brief: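 For each cysteine, the log2 competition ratio is mean control-channel reporter intensity over mean compound-channel reporter intensity. HEK293T lysate (2 mg/mL) was exposed to vehicle or electrophile (500 µM, 1 h, ambient temperature), labelled with iodoacetamide alkyne (1 h), clicked to sCIP-TMT reagents, digested overnight with trypsin at 37 °C, streptavidin-enriched and analysed by Orbitrap Eclipse LC-MS/MS with FAIMS and FragPipe. Cysteines quantified in only one of three replicates, each with duplicate channels, were excluded.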

log2 ratio of iodoacetamide-alkyne labeling, inactive:
MCTS1 C113 (UniProt Q9ULC4) -0.0609
BAZ2A C943 (UniProt Q9UIF9) -0.0243
CIZ1 C252 (UniProt Q9ULV3) 0.198
ABT1 C37 (UniProt Q9ULW3) 0.596
DCTN4 C41 (UniProt Q9UJW0) 0.309
SNX6 C348 (UniProt Q9UNH7) 0.0168
NOP58 C439 (UniProt Q9Y2X3) 0.569
ZC3H4 C1302 (UniProt Q9UPT8) 0.0969
UniProt Q9Y2K2_C223 0.545
LUC7L2 C348 (UniProt Q9Y383) 0.415
GTF3C4 C814 (UniProt Q9UKN8) 0.219
SMC3 C650 (UniProt Q9UQE7) -0.263
LEMD3 C346 (UniProt Q9Y2U8) 0.462
GIT1 C576 (UniProt Q9Y2X7) 0.845
DDX20 C524 (UniProt Q9UHI6) 0.6
UniProt Q9UPN7_C795 0.136
TTF2 C785 (UniProt Q9UNY4) 0.282
TIMELESS C1126 (UniProt Q9UNS1) 0.807
VPS51 C254 (UniProt Q9UID3) 0.563
EPB41L3 C140 (UniProt Q9Y2J2) -0.00819
PA2G4 C179 (UniProt Q9UQ80) -0.273
NUDT5 C76 (UniProt Q9UKK9) 0.157

2 records drawn at random from the list so far:
log2 ratio of iodoacetamide-alkyne labeling, inactive:
BAZ2A C943 (UniProt Q9UIF9) -0.0243
UniProt Q9Y2K2_C223 0.545
